Results: PubChem BioAssay AID1347423 (Functional Genomics Laboratory (NCATS/FGL), 2020)
Out of some 52,000 sequences screened, about 210 (0.4%) were called active.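 The calls were made as follows: active = gene whose silencing raises cell survival under the drug, median off-target-corrected z-score across its silencing RNAs 2 or more; inactive = the rest.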 The list shows a part of the results.

Test: Resistance to Poly (ADP-Ribose) Polymerase inhibitor: Gene Identification via Genome-wide siRNA Screen
Conditions: mouse BRCA2 R2336H ES cells, olaparib, CellTiter-Glo viability; stronger effect = higher value
Method in brief: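 Mouse BRCA2 R2336H ES cells were reverse-transfected with siRNA (20 nM final), treated at 48 h with 500 nM olaparib, and read by CellTiter-Glo after 72 h. Scores: MAD-based z per siRNA, median per gene, seed off-target correction.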

| Sequence | z-score |
| --- | --- |
| GUUCGCUGAACACGUCUUCTT against Hpcal1 | inactive: -0.829 |
| GCAUCAAGUCUGAGCGACUTT against Mef2b | inactive: -0.714 |
| CCAGGCCAAAUCUCACAAUTT against A730008H23 | inactive: 0.0605 |
| GGAUCUCUACUUCUAUAAGTT against Kif27 | inactive: -0.277 |
| CGACCCUGACAGAAUACUCTT against 1810045K07Rik | inactive: -0.438 |
| CCUUGCUCAAUGUUUUGGATT against Obscn | inactive: -0.721 |
| GCCUACUCCCAAGAGGAAATT against Rai3 | inactive: -0.191 |
| GGGAAAAUACACUAUUUGATT against D530031C13Rik | inactive: 1.23 |
| GCCUUUCAAGAUUUGUGGGTT against Wdt2 | inactive: -0.571 |
| GCUAUAAGCUCAGGUUUGUTT against Osbpl10 | inactive: -0.293 |
| GCACCCUCUUUCAAGAAACTT against Olfr331 | inactive: 1.56 |
| GCCUCUUCAGAUGGACCUATT against Phemx | inactive: 0.0947 |
| GGGUGAUCCCUGAAUAUUGTT against Arcn1 | inactive: -1.79 |
| CGAGAUUUUUCAUGAUGUGTT against Slc4a8 | inactive: 0.333 |
| CCAAACUAGGAGACAUAAUTT against Dhx38 | inactive: 0.431 |
| GGAUCUAUGGGUAUCCUGCTT against Adam1a | inactive: 0.143 |
| CGUAUUUGUGGCAUAUUAGTT against Olfr1183 | inactive: 0.353 |
| GGAUAUCCUUCUGUCCAGUTT against Tyr | inactive: -0.0111 |
| GCUCUCAAAAGUCCUUAGCTT against 2210018M11Rik | inactive: -0.309 |
| GGACCUCAGCUUACCUAGCTT against 1300002K09Rik | inactive: 0.32 |
| GGAAAUUGCUCAAAAAAGGTT against Asb3 | inactive: 0.325 |
| GGACAAGGCAAAGGCCUAUTT against Phka1 | inactive: 1.78 |
| UCACUGUACCAUUCAUAUGTT against Olfr50 | inactive: 0.0614 |
| AUGAUUCCCUACCAGAUCGTT against Pfdn4 | inactive: -0.598 |
| GGUCAUCUUCCGAUACUGUTT against Pspn | inactive: 0.712 |
| GGCUAUAACCAGCCUCAUGTT against A730055C05Rik | inactive: -0.887 |

For reference, part of the list above.

| Sequence | z-score |
| --- | --- |
| CCUUGCUCAAUGUUUUGGATT against Obscn | inactive: -0.721 |
| GCCUACUCCCAAGAGGAAATT against Rai3 | inactive: -0.191 |
| GGGAAAAUACACUAUUUGATT against D530031C13Rik | inactive: 1.23 |

More entries follow.

| Sequence | z-score |
| --- | --- |
| CCAGAUGCUAAAUCACUACTT against 1700019P01Rik | inactive: 1.43 |
| GCACUUACUCCUUAACUCUTT against D19Ertd144e | inactive: -0.415 |
| GGUCAUGAAAAAGCUAACCTT against Dppa3 | inactive: -0.645 |
| GGCCUACGAGAGGCAAAAATT against Tcf1 | inactive: -0.541 |
| CGAGGUCUCAAUUACAUUATT against Pcolce2 | inactive: 1.39 |
| UAUCCACAGUAUGGUGGCUTT against Tas2r137 | inactive: 0.767 |
| GGAAUUCAUACCCUUGUUGTT against B3gnt5 | inactive: -0.731 |
| GCACCUUAAAAAUGAAGAUTT against D12Ertd551e | inactive: -0.616 |
| GGGAGAAGAUGUCAACCGGTT against Mtpn | inactive: 0.444 |
| CGAAGCAUUAGAUUUUGACTT against BC062185 | inactive: 0.863 |
| GCGAUCACUUUUCAAGUUUTT against Rnf139 | inactive: -0.00625 |
| GGUCAUGUUUCUCUCCCAATT against 2810471M23Rik | inactive: -1.43 |
| GGUCAGAUUAACAAAUUCGTT against Proz | inactive: 0.453 |
| GGUGACUAACGAGAUCAUUTT against Slc19a1 | inactive: -2.21 |
| GCUCCUCGGUCUUUCAUGUTT against 5330401P04Rik | inactive: -2.47 |
| GGACGAAGGUUUCUUUGAGTT against Samd8 | inactive: 0.578 |
| GGUGCUCAACAAGUGGACUTT against Htr1a | inactive: -0.928 |
| GGCACAUUAGUAGAACACATT against Sorcs2 | inactive: -0.299 |
| GGCAAAAUGACACGGACACTT against Gm253 | inactive: -1.52 |
| CCUUUUUGAUCGUUAUGAUTT against Dnajc11 | inactive: 1.43 |
| GGAUUGAGUCCUAUGAAGGTT against Stard3nl | inactive: 0.128 |
| GCUGCCUACCUGUGAAAGUTT against Pgam2 | inactive: -0.179 |
| GGUCUCACAGCAGUACUCATT against Clk4 | inactive: 0.89 |
| CCAUCACCAGUCGAGAUGCTT against H13 | inactive: 0.487 |
| GCCGUACCAUGUAAUGCCATT against 1200013P24Rik | inactive: 0.73 |
| GGUGUCUGAGUAAUUCUGGTT against Zfp371 | inactive: 0.498 |

Exported field by field: part of the list above
CCUUGCUCAAUGUUUUGGATT against Obscn
  z-score: inactive: -0.721
GCCUACUCCCAAGAGGAAATT against Rai3
  z-score: inactive: -0.191

More records.

| Sequence | z-score |
| --- | --- |
| GGUAACAGUUCAACAGUAUTT against Olfr1039 | inactive: -1.26 |
| GGAGUACAGUGUGAGCAGATT against Dok4 | inactive: -1.13 |
| CGCGUAUCUGACCAGGUCATT against 2410011O22Rik | inactive: 0.00225 |
| GGCUCUGUAGCUAGCAAUATT against C77080 | inactive: 1.59 |
| UCGAAGAUUGGUCUAAAUUTT against 1700055M20Rik | inactive: 0.556 |
| GCAGCUUAAGUUGCCCAAGTT against Aatk | inactive: -2.24 |
| GGCUGAGGAUAUGAUGUUATT against Zic3 | inactive: -1.44 |
| UGGCUGAUAUGAAGGUCUGTT against LOC432602 | inactive: 0.158 |
| GGCUGAAAGCCCAGAUCUUTT against 4930565A21Rik | inactive: -2.19 |
| CCUUAUAGUCCAGUAUUUUTT against 6030443O07Rik | inactive: 0.625 |
| GGAAAGUCAGGAUGAAUAUTT against Cst9 | inactive: -1.89 |
| GGCUUCAAGCAAGUAAAGGTT against Cars | inactive: -0.872 |
| GGGCUAGAGGAAAACGAAATT against Crot | inactive: -0.453 |
| AUGAUUCACAGUGCAGUGATT against Imap38 | inactive: -0.34 |
| GACCCAGGCUCUGCUCUUUTT against Olfr1413 | inactive: 1.28 |
| GGAAAAAUGGCAACUUCAATT against Dock3 | inactive: 0.215 |
| GGGAUUGGGACUGUUUUUGTT against Atp5g2 | inactive: -0.641 |
| GGUGGACAAGACUAAAACATT against Podxl | inactive: 0.378 |
| GCCAAUAAGAACAACGAUGTT against Des | inactive: -0.111 |
| GGUGUCCAGAUUUACCUGUTT against Olfr429 | inactive: 0.127 |
| CAAUAAUGAAUCCACGGUATT against Olfr728 | inactive: -0.876 |
| GCUGAAAUCUCCAAAUACCTT against Arl8 | inactive: -0.727 |
| GGCUGUUUAGAUGUAAUGUTT against Nek1 | inactive: -0.348 |
| GCACAUCUCAGCCUGAAUCTT against Cln6 | inactive: -0.164 |
| GGACCAUGGAUAUUUAAAGTT against Mafk | inactive: 0.606 |
| CCGAAGUUCACCCUAAAGGTT against Lmna | inactive: 0.053 |

| Sequence | z-score |
| --- | --- |
| CCUGAAAGAUCCAGAAGUATT against Dppa5 | inactive: 0.602 |
| GGUCCAGCUAUAAAGACAATT against Gm405 | inactive: -0.321 |
| GCCUUGUAGACCAGUUCUATT against 9530085L02Rik | inactive: -1.46 |
| GGAUAACAGAUGGUUAAUATT against D5Ertd577e | inactive: 0.00935 |
| GGCUGCCAAGAAAAUCUAUTT against Rab14 | inactive: 0.0881 |
| GCCUUACAACAAGCAACACTT against 2210008M09Rik | inactive: 0.683 |
| GGUGUGUGAUAAAUCUUUUTT against Zfp53 | inactive: 0.686 |
| GGCCCUGCCAGGUUUUUAGTT against Rpel1 | inactive: 0.301 |
| AGAGUGGUAAAACUGAUUATT against Tas2r129 | inactive: -0.146 |
| GGUGAACAUUAACAACAGUTT against Ngfb | inactive: 0.53 |
| GGGCAAUGAUAUUGUUGUGTT against Ilk | inactive: -1.71 |
| GGAGCCUGACAUCAUUAUCTT against Mmp25 | inactive: -0.573 |
| GGAUCUAGAGAUUGAAAAUTT against Uaca | inactive: -0.993 |
| GGGCUGUGAUAUGCAACUCTT against AJ554213 | inactive: -1.15 |
| GGGUUGUUUGCUGGUUUGUTT against 0610007H07Rik | inactive: -1.99 |
| GGACCUGAAACACGCCAAUTT against Pctk3 | inactive: -0.013 |
| GGCCUUUUGGCUUUGAUCUTT against Hoxb1 | inactive: 0.514 |
| GGAUGUACUUUGUUAAGGCTT against Tert | inactive: 0.341 |
| GCCUUUAUCUACCGCCCAGTT against 4932442K08Rik | inactive: 0.56 |
| GCUAAACGAGUUAUUGGUGTT against AI314180 | inactive: -1 |
| GGACCCAUUGGUCAUCAUATT against 4732473B16Rik | inactive: -0.785 |
| CCGUAGUCCUGAAGAUUCCTT against Olfr427 | inactive: 1.73 |
| GACCAUCCUACUACUUAUGTT against V1rc8 | inactive: 0.509 |
| GGGCAUAUGGAGAACACAUTT against Dmrt1 | inactive: 0.262 |
| GGUGUACCAAGUGUUGAAGTT against Pold4 | inactive: 0.761 |
| CCUAGGGCUUUAGCUCUGATT against Msc | inactive: -1.29 |

Single values from the list.
GCUAAACGAGUUAUUGGUGTT against AI314180 – z-score: inactive: -1
GACCAUCCUACUACUUAUGTT against V1rc8 – z-score: inactive: 0.509
